# Assay results: the supplement of paper PMC10849652
# The chains behind the UniProt entries cited, without tags or fusion partners. Where a name states a change or a piece, a line headed by the entry shows the natural chain unless it says otherwise.
# UniProt Q15057: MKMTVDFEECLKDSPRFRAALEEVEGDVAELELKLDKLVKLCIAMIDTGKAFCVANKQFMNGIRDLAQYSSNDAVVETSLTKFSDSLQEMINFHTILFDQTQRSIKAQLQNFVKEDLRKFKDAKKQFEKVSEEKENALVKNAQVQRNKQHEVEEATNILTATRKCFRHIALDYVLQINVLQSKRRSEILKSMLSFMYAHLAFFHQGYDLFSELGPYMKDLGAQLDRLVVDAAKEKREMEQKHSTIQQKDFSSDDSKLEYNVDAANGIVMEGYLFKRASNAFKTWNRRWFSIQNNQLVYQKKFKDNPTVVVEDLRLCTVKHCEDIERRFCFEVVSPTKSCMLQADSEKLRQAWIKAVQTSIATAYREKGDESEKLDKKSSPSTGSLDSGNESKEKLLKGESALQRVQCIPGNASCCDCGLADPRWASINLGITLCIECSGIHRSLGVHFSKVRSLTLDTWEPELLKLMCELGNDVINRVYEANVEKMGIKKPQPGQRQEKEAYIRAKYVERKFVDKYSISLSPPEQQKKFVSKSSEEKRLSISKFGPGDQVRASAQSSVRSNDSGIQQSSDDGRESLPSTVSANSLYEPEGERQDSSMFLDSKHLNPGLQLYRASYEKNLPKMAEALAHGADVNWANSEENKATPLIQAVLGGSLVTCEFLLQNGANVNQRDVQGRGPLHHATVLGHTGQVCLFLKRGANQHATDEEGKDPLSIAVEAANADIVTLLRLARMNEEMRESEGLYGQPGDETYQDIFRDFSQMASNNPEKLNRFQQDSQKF
# UniProt Q9NUQ8: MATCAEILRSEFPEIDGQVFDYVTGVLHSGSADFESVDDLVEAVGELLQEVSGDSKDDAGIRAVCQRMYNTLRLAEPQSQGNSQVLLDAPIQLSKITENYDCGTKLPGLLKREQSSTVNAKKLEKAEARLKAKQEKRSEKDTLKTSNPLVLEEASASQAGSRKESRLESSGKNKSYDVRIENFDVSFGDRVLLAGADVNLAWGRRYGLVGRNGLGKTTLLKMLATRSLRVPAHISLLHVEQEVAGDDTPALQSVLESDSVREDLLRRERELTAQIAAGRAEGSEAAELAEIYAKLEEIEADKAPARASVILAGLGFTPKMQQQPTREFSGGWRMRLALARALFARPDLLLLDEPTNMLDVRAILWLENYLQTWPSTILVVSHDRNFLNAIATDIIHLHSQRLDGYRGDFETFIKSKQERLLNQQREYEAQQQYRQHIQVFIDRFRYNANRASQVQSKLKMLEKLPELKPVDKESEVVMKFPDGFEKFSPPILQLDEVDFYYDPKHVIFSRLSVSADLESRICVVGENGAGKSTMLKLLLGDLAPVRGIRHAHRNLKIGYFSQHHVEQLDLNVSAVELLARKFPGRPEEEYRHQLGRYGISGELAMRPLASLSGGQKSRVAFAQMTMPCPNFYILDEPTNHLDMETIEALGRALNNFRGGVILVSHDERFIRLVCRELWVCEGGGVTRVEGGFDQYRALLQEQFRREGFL
# UniProt Q13685: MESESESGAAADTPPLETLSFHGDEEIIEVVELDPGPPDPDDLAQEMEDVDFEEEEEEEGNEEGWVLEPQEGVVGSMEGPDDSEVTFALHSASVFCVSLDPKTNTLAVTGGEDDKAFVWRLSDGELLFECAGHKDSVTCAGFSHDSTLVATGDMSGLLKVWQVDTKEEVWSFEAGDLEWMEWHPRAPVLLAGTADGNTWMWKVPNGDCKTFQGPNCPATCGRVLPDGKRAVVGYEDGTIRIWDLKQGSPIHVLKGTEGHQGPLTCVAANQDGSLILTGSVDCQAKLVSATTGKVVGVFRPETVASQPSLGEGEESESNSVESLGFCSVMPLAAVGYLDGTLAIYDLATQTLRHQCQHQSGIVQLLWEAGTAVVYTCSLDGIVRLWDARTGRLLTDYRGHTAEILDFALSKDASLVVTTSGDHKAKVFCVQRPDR
# UniProt Q5JTZ9, whole entry, looked up: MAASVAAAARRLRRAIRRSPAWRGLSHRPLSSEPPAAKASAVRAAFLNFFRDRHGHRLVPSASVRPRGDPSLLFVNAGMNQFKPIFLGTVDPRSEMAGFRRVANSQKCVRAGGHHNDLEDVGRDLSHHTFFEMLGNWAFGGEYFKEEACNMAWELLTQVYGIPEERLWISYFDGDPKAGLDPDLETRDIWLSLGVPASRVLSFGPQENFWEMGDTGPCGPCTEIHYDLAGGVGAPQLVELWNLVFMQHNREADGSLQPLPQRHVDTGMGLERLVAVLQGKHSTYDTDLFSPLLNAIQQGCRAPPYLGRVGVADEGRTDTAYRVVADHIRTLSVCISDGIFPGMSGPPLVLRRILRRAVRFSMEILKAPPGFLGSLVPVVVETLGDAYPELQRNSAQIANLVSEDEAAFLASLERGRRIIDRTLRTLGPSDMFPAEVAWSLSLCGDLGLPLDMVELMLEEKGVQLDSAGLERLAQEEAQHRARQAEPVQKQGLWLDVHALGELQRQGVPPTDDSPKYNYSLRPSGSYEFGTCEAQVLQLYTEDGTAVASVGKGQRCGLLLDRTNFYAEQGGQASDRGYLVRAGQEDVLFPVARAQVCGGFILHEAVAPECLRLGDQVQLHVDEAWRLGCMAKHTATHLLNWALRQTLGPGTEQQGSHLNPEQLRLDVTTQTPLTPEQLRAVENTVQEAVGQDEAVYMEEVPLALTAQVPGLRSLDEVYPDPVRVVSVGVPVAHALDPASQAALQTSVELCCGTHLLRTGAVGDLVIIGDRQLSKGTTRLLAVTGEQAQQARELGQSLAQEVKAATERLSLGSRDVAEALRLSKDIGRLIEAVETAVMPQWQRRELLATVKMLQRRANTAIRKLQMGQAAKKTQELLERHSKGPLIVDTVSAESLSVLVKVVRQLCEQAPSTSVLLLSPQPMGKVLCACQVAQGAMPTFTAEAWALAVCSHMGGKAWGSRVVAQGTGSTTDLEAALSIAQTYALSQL
# UniProt Q9BWD1: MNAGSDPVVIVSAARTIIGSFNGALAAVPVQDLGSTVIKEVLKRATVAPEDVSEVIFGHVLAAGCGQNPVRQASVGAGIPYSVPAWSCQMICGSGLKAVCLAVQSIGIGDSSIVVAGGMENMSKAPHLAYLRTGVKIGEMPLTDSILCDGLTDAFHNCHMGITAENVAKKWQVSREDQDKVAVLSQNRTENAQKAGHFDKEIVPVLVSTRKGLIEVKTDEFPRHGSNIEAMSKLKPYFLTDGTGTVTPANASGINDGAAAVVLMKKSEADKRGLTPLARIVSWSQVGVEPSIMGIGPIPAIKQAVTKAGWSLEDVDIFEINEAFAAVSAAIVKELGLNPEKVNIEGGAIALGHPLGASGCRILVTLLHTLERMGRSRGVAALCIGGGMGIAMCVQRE
# UniProt P24752: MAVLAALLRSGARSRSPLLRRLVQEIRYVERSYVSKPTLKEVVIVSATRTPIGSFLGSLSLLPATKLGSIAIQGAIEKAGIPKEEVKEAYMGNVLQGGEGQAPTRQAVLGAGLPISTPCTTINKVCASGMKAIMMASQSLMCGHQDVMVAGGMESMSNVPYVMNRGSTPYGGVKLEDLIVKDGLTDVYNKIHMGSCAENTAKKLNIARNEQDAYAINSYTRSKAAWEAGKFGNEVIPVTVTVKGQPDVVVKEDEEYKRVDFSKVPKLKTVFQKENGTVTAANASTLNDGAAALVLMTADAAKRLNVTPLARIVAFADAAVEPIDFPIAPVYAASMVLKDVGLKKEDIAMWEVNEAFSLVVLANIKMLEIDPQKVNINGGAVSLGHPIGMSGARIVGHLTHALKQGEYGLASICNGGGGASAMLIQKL
# UniProt Q9NRN7: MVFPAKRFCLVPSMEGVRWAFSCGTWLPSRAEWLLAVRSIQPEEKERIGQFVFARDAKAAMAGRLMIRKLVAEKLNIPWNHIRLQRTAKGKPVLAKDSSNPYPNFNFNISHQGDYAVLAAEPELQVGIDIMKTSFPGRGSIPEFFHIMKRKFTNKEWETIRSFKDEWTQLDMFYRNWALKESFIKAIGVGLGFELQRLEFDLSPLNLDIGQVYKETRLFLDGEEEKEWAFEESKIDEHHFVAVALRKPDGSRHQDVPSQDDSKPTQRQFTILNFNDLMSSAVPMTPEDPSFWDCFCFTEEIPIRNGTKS
# UniProt Q5VST6: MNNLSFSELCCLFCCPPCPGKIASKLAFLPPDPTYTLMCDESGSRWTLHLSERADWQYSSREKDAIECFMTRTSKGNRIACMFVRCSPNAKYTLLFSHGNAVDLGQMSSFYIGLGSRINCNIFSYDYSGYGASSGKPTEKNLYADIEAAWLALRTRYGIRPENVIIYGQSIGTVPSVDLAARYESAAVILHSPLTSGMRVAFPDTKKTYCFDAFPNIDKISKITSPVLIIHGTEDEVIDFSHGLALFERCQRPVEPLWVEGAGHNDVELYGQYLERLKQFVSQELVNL
# UniProt Q8N2K0: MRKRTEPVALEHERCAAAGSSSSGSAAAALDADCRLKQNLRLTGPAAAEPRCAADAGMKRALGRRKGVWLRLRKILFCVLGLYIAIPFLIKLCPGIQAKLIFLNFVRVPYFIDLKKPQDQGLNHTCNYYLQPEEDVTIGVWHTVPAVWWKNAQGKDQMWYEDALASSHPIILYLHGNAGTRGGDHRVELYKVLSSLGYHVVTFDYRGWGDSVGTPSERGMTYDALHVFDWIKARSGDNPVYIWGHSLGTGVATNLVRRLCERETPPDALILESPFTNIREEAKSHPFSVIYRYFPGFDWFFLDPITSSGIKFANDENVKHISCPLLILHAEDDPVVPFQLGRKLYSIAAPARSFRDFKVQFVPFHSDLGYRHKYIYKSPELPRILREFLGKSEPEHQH
# UniProt P42684, whole entry, looked up: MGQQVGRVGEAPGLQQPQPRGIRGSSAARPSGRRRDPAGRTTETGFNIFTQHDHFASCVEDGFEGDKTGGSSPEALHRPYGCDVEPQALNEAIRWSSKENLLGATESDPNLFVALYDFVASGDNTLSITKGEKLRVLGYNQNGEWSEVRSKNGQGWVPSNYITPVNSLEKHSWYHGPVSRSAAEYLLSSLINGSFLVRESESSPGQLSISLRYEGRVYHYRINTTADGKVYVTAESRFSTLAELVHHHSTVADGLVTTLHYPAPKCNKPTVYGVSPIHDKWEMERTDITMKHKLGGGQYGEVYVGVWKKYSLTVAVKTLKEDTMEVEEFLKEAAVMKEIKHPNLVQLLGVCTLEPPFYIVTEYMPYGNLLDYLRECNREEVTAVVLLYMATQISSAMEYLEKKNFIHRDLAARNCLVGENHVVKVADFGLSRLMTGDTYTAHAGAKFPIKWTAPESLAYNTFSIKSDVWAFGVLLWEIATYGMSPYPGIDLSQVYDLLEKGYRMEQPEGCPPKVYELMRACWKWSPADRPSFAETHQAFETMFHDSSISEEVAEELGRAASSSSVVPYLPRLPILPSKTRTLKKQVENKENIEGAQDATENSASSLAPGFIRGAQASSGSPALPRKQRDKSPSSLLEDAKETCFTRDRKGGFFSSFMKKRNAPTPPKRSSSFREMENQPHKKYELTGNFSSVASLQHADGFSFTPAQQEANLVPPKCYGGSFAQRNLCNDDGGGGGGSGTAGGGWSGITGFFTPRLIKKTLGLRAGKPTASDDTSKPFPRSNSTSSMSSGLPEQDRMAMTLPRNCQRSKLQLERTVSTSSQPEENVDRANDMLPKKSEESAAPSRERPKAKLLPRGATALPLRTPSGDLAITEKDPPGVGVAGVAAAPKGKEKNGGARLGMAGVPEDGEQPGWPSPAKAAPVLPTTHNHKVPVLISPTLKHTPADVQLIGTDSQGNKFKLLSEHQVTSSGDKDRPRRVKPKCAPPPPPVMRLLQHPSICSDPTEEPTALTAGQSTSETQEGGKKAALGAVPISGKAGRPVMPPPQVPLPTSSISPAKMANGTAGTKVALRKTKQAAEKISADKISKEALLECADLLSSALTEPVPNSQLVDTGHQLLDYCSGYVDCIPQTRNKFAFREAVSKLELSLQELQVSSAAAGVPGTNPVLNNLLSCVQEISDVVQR
# UniProt Q9H845: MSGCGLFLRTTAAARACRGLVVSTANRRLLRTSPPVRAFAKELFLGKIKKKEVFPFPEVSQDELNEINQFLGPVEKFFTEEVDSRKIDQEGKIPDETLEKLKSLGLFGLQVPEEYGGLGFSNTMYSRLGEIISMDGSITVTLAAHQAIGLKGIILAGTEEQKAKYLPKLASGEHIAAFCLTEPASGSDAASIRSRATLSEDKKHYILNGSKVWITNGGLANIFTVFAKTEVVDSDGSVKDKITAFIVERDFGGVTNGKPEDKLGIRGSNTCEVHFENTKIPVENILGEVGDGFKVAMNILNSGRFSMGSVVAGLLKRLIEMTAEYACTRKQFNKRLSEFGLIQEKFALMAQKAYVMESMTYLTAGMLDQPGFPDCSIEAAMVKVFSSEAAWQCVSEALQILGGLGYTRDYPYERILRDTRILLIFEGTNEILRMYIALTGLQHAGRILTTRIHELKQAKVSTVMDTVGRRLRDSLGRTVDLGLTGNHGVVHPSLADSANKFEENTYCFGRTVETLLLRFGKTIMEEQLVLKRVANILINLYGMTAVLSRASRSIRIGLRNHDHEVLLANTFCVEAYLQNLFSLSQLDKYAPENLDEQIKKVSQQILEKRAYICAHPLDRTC
# The other results are listed elsewhere or left out.
# Key:
# Assay in all cases: log2 fold change, soluble protein after heating vs DMSO (PISA); higher = thermal stabilisation; K562 lysate, 10 uM; active = over 0.2 and 3.5 SD of the protein, either way, in both replicates (recomputed)
# [1] = compound: C#Cc1cccc(Nc2ncnc3cc(OCCOC)c(OCCOC)cc23)c1 [erlotinib]
# How it was run: (§1)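 Quantification was by TMTpro 16plex LC-MS/MS with equalised channel sums, applied to the supernatant after 21,000xg for 90 min. Samples were crude K562 extract at 1 mg/mL protein in PBS pH 7.4 with 1 mM MgCl2, treated with 10 μM compound for 30 min, heated for 3 min across 48°C-58°C, pooled and brought to 0.5% NP-40 at 4°C. Values are log-two fold changes in thermal stability relative to solvent controls, from duplicates.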
# [2] = compound: C/C(=N\NC(=O)C1=CC(=CC=C1)S(=O)(=O)N2CCOCC2)/C3=C(C=CC(=C3)Cl)O
# How it was run: as §1
# [3] = compound: C1=CC(=CC=C1C2=NC3=C(N2)C=C(C=C3)C(=O)N)OC4=CC=C(C=C4)Cl
# How it was run: as §1
# [4] = compound: C1=CC2=C(C=CC(=C2)/C=C\3/C(=O)NC(=NCC4=CC=CS4)S3)N=C1
# How it was run: as §1
# [5] = compound: C1=CC2=NC=CN=C2C=C1/C=C/3\C(=O)NC(=O)S3
# How it was run: as §1
# [6] = compound: C1=CC=C(C=C1)C2=NC(=C(N2)C3=CC=NC=C3)C4=CC(=C(C=C4)Cl)O
# How it was run: as §1
# [7] = compound: C1=CC=C2C(=C1)C3=NNC4=CC=CC(=C43)C2=O
# How it was run: as §1
# [8] = compound: C1CCN(C1)C(=O)NC2=CC=CC(=C2)NC3=NC=C(C(=N3)NCCC4=CN=CN4)Br
# How it was run: as §1
# [9] = compound: C1CN(CCC1(CC2=CC=C(C=C2)Cl)N)C3=NC=NC4=C3C=CN4
# How it was run: as §1
# [10] = compound: C1COCCN1CCN2C3=CC=CC=C3N=C2NC(=O)C4=CC(=CC=C4)[N+](=O)[O-] [IRAK-1-4 Inhibitor I]
# How it was run: as §1
# [11] = compound: C=CC(=O)N1CCC[C@@H](n2nc(-c3ccc(Oc4ccccc4)cc3)c3c(N)ncnc32)C1 [ibrutinib]
# How it was run: as §1
# [12] = compound: CC(=O)c1cnc2ccc(-c3cc(Cl)c(O)c(Cl)c3)nc2c1N[C@H]1CC[C@H](CN(C)C)CC1
# How it was run: as §1
# [13] = compound: CC(C)(C)Cn1c(N)nc2ccc(-c3[nH]c(C(C)(C)C)nc3-c3ccc(F)cc3)nc21 [ralimetinib]
# How it was run: as §1
# [14] = compound: CC(C)(O)CC(=O)NCCn1ccc2ncnc(Nc3ccc(Oc4cccc(C(F)(F)F)c4)c(Cl)c3)c21
# How it was run: as §1
# [15] = compound: CC(C)C1=C2N=C(C=C(N2N=C1)NCC3=CC=CC=C3)NCCCCCCN
# How it was run: as §1
# [16] = compound: CC1=C(C(CC(=O)N1)C2=CC=C(C=C2)C(F)(F)F)C(=O)NC3=C(C=C4C(=C3)C=NN4)F
# How it was run: as §1
# [17] = compound: CC1=C(C2=C(C=C1)C(=O)C3=CC=CC=C3N2CCCN)C
# How it was run: as §1
# [18] = compound: CC1=C(C=C(C=C1)NC(=O)C2=CC(=CC=C2)C(C)(C)C#N)NC3=CC4=C(C=C3)N=CN(C4=O)C
# How it was run: as §1
# [19] = compound: CC1=C(C=C(C=C1)NC(=O)C2=CC(=CC=C2)N(C)C)NC(=O)C3=CC=C(C=C3)O
# How it was run: as §1
# [20] = compound: CC1=CC=C(C=C1)SC2=C3C=C(SC3=CN=C2)C(=O)N
# How it was run: as §1
Target,log2 fold change [1],log2 fold change [2],log2 fold change [3],log2 fold change [4],log2 fold change [5],log2 fold change [6],log2 fold change [7],log2 fold change [8],log2 fold change [9],log2 fold change [10],log2 fold change [11],log2 fold change [12],log2 fold change [13],log2 fold change [14],log2 fold change [15],log2 fold change [16],log2 fold change [17],log2 fold change [18],log2 fold change [19],log2 fold change [20]
ACAP2 (UniProt Q15057),inactive: -0.011,inactive: -0.003,inactive: -0.012,inactive: -0.005,inactive: 0,inactive: -0.08,inactive: -0.022,inactive: -0.008,inactive: -0.027,inactive: 0.024,inactive: -0.013,inactive: 0.007,inactive: 0,inactive: -0.027,inactive: -0.001,inactive: 0.01,inactive: 0.018,inactive: -0.027,inactive: -0.008,inactive: -0.017
ABCF3 (UniProt Q9NUQ8),inactive: 0.005,inactive: 0.013,inactive: -0.049,inactive: 0.011,inactive: 0.009,inactive: -0.011,inactive: -0.065,inactive: 0.022,inactive: -0.033,inactive: -0.037,inactive: 0.008,inactive: 0.035,inactive: 0.067,inactive: 0.046,inactive: -0.013,inactive: 0.009,inactive: -0.012,inactive: -0.02,inactive: 0.018,inactive: 0.001
ACOT13 (UniProt Q9NPJ3),inactive: 0.021,inactive: -0.006,inactive: 0.037,inactive: 0.015,inactive: -0.001,inactive: 0.012,inactive: 0.027,inactive: 0.061,inactive: 0.034,inactive: -0.002,inactive: -0.056,inactive: 0.031,inactive: -0.04,inactive: -0.048,inactive: 0.006,inactive: -0.022,inactive: -0.021,inactive: 0.029,inactive: -0.027,inactive: -0.012
ACADM isoform 2 (UniProt P11310),inactive: -0.088,inactive: 0.049,inactive: -0.034,inactive: 0.23,inactive: 0.085,inactive: 0.101,inactive: -0.032,inactive: -0.032,inactive: -0.003,inactive: -0.007,inactive: 0.151,inactive: 0.026,inactive: -0.015,inactive: -0.047,active: 0.396,inactive: -0.041,inactive: -0.004,inactive: -0.055,inactive: -0.019,inactive: 0.046
ABHD14B (UniProt Q96IU4),inactive: 0.043,inactive: 0.02,inactive: 0.022,inactive: -0.017,inactive: -0.001,inactive: 0.01,inactive: -0.015,inactive: -0.031,inactive: 0.053,inactive: 0.002,inactive: -0.037,inactive: -0.003,inactive: 0.014,inactive: -0.037,inactive: 0.003,inactive: -0.032,inactive: -0.053,inactive: 0.015,inactive: -0.004,inactive: 0.016
AAMP (UniProt Q13685),inactive: 0.005,inactive: 0.073,inactive: 0.005,inactive: -0.001,inactive: 0.013,inactive: 0.037,inactive: 0.018,inactive: 0.027,inactive: 0.001,inactive: 0.009,inactive: 0.023,inactive: 0.001,inactive: -0.009,inactive: -0.021,inactive: -0.041,inactive: -0.022,inactive: -0.01,inactive: 0.02,inactive: -0.049,inactive: -0.025
AARS2 (UniProt Q5JTZ9),inactive: 0.013,inactive: -0.047,inactive: -0.05,inactive: 0.004,inactive: -0.013,inactive: 0.005,inactive: -0.026,inactive: -0.008,inactive: 0.038,inactive: -0.024,inactive: 0,inactive: -0.052,inactive: 0.025,inactive: -0.018,inactive: 0.029,inactive: 0.009,inactive: 0.02,inactive: -0.006,inactive: 0.035,inactive: -0.03
ACAT2 (UniProt Q9BWD1),inactive: -0.023,inactive: -0.098,inactive: 0.031,inactive: -0.054,inactive: -0.006,inactive: 0.025,inactive: -0.007,inactive: -0.011,inactive: 0.015,inactive: 0.028,inactive: 0.087,inactive: 0.024,inactive: -0.018,inactive: -0.007,inactive: 0.035,inactive: -0.022,inactive: -0.002,inactive: -0.006,inactive: -0.005,inactive: -0.019
ACACB (UniProt O00763),inactive: 0.042,inactive: 0.097,inactive: -0.025,inactive: 0.018,inactive: -0.02,inactive: -0.01,inactive: -0.008,inactive: -0.005,inactive: 0.015,inactive: 0.025,inactive: 0.051,inactive: 0.018,inactive: 0.069,inactive: 0.032,inactive: 0.014,inactive: -0.036,inactive: 0.015,inactive: 0.021,inactive: 0.052,inactive: 0.022
ACAT1 (UniProt P24752),inactive: 0.011,inactive: 0.006,inactive: -0.015,inactive: 0.015,inactive: 0.017,inactive: -0.002,inactive: -0.007,inactive: -0.028,inactive: 0.015,inactive: 0.017,inactive: 0.002,inactive: 0.005,inactive: 0.003,inactive: 0.002,inactive: -0.002,inactive: 0.001,inactive: 0.034,inactive: -0.013,inactive: -0.007,inactive: 0.015
AASDHPPT (UniProt Q9NRN7),inactive: -0.007,inactive: -0.009,inactive: -0.018,inactive: 0.012,inactive: 0.028,inactive: 0.011,inactive: -0.004,inactive: 0.005,inactive: 0.026,inactive: -0.012,inactive: -0.006,inactive: -0.004,inactive: 0.013,inactive: 0.001,inactive: -0.004,inactive: -0.021,inactive: 0.027,inactive: 0.014,inactive: -0.017,inactive: 0.01
ABHD17B (UniProt Q5VST6),inactive: -0.08,inactive: -0.047,inactive: -0.011,inactive: 0.044,inactive: -0.043,inactive: 0,inactive: 0.021,inactive: 0.064,inactive: -0.111,inactive: 0.014,inactive: 0.067,inactive: -0.031,inactive: -0.053,inactive: -0.037,inactive: -0.036,inactive: -0.076,inactive: 0.001,inactive: 0.013,inactive: 0.127,inactive: 0.018
ABHD12 isoform 2 (UniProt Q8N2K0),inactive: -0.027,inactive: -0.031,inactive: -0.062,inactive: 0.074,inactive: 0.037,inactive: -0.064,inactive: 0,inactive: -0.03,inactive: 0.048,inactive: 0.014,inactive: -0.039,inactive: -0.03,inactive: 0.043,inactive: -0.014,inactive: 0.05,inactive: 0.052,inactive: 0.021,inactive: 0.022,inactive: -0.05,inactive: 0.033
AAK1 (UniProt Q2M2I8),inactive: 0.044,inactive: -0.081,inactive: -0.114,inactive: 0.27,inactive: 0.082,inactive: -0.002,inactive: 0.283,inactive: 0.12,inactive: -0.065,inactive: 0.156,inactive: -0.025,inactive: 0.426,inactive: 0.009,inactive: -0.045,inactive: 0.023,inactive: -0.021,inactive: -0.011,inactive: -0.002,inactive: -0.026,inactive: 0.039
ABL2 (UniProt P42684),inactive: -0.046,inactive: 0.068,inactive: 0.053,inactive: -0.014,inactive: -0.013,inactive: 0.045,inactive: -0.003,inactive: -0.065,inactive: -0.141,inactive: -0.068,active: 0.586,inactive: 0.078,inactive: 0.005,inactive: 0.002,inactive: 0.002,inactive: -0.057,inactive: -0.112,inactive: 0.154,inactive: 0.093,inactive: -0.046
ACAD9 (UniProt Q9H845),inactive: -0.031,inactive: 0.008,inactive: -0.01,inactive: 0.003,inactive: -0.003,inactive: 0.01,inactive: -0.013,inactive: 0.011,inactive: 0.031,inactive: 0.044,inactive: 0.007,inactive: -0.027,inactive: -0.011,inactive: 0.026,inactive: -0.024,inactive: 0.019,inactive: -0.019,inactive: 0.036,inactive: -0.008,inactive: 0.033
